Results as given in patent US20220235132A1.
No constants are given. Whether binding was seen depends on the method and setting. Binding calls can cover weak binding; strength is not graded here.

Molecular target: human PD-1 monomer with mutations in the top of the loop labeled HDX mapped beta-hairpin (human)
Test: SPR with mutated human PD-1 monomer

binding: binds
B1: APE12095 (3.7C6 anti-PD-1 antibody, ExpiCHO-S transient) (antibody, V domains shown)
VH: QVQLVQSGSELKKPGASVKVSCKASNYTFTDYSMHWVRQAPGQGLEWMGWINIETYYPTYADQFKGRFAFSLDTSVSTAYLQISSLKAEDTAVYYCARDYYGRFYYAMDYWGQGTTVTVSS
VL: EIVLTQSPATLSLSPGERATLSCTASSSVSSSYFHWYQQKPGQAPRLLIYSTSNLASGIPARFSGSGSGTDFTLTISRLEPEDFAVYYCHQYHRSPLTFGGGTKVEIKR
